Laboratory results from PubChem BioAssay AID651640 (Broad Institute, 2012).
Where “and” joins values, the source holds several entries; their conditions need not be identical. Equal entries are not always repeated. Out of some 350,000 compounds screened, about 6,000 (1.7%) were called active. The shares of active, inactive and inconclusive entries below differ from those in the screen. Rule as the data show it: active = CPE inhibition above about 20% (passing the limit was not always enough); inconclusive = no clear call, values can overlap the other calls; tested in BHK-21 cells.

Test: protection of cells from dengue 2 killing – plate reader, single concentration, primary screen (AID 651640);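 also: 0% = median of neutral control wells and 100% = median of positive control wells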
Details: DENV2-infected cells, cytopathic effect rescue, at 9.99 µM, active compounds read high

Row | SMILES | CPE inhibition
1 | CN(CCCNC(=O)C1CCC(CNS(=O)(=O)c2ccccc2)CC1)Cc1ccccc1 (centres undefined) | inconclusive: 20.2%
2 | COc1ccc(NC(=O)CSc2nc3c(c(=O)n2-c2ccccc2OC)SCC3)cc1 | inconclusive: 24.6%
3 | CC(=O)c1ccc(OCC(=O)Nc2ccc(N3CCCCC3)cc2)cc1 | inactive: 5.32%
4 | CC=Cc1ccc2n(c1=O)C[C@H]1[C@H](CO)[C@@H](C(=O)NCCC)[C@@H]2N1Cc1nccs1 (mixture of isomers) | inconclusive: 40.4%
5 | O=C(C[C@H]1C=C[C@@H](NC(=O)Nc2ccc(C(F)(F)F)cc2)[C@@H](CO)O1)NCc1ccccn1 | active: 20.1%
6 | C[C@@H]1CN([C@@H](C)CO)C(=O)c2cc(NS(C)(=O)=O)ccc2O[C@H]1CN(C)Cc1ccc(-c2ccccc2)cc1 | active: 31.6%
7 | O=C(c1ccccc1F)N1CC[C@@H]2[C@H](CO)Nc3ccc(C#Cc4ccccc4F)cc3[C@@H]21 | active: 61.6%
8 | CCCn1c(SCC(=O)Nc2cc(S(=O)(=O)N(C)C)ccc2OC)n[nH]c1=O | inconclusive: 28.2%
9 | COc1ccccc1CNS(=O)(=O)c1ccc2c(c1)NC(=O)C(C)S2 (centres undefined) | inconclusive: 37.7%
10 | O=[N+]([O-])c1c(NCCCO)cc(N2CCCCCC2)c2nonc12 | active: 37.4%
11 | NC(=O)CSc1nnc(COc2cccc3ccccc23)o1 | inconclusive: 30.6%
12 | CC(NC(=O)c1c(N)[nH]c(C(=O)c2ccc(Cl)cc2)c1-c1ccc(Br)cc1)c1cccc2ccccc12 (centres undefined) | active: 38.8%
13 | CCc1noc(C)c1C(=O)NNC(=O)COc1cc(C)ccc1C | inconclusive: 33.8%
14 | COc1ccc(C#Cc2ccc([C@@H]3[C@H](CO)N4CCCCN(C(=O)Nc5ccccc5)C[C@@H]34)cc2)cc1 | active: 34.2%
15 | CO[C@H]1CN(C)C(=O)c2ccc(NC(=O)C3CC3)cc2OC[C@H](C)N(C(=O)c2ccccn2)C[C@H]1C | inconclusive: 40.3%
16 | C[C@H]1CN([C@@H](C)CO)C(=O)c2cccc(NC(=O)CCCCCC(=O)Nc3ccccc3N)c2O[C@H]1CN(C)C | inactive: -5.92%
17 | COc1cc2c(OC(C)=O)c3c(c(-c4ccc5c(c4)OCO5)c2cc1OC)C(=O)OC3 | inconclusive: 24.5%
18 | C[C@@H]1CN([C@H](C)CO)C(=O)Cc2cc(NC(=O)C3CC3)ccc2O[C@H]1CN(C)C(=O)Nc1ccccc1 | active: 105%
19 | CC(=O)c1nn(-c2ccc(Cl)cc2)cc1C(=O)c1ccc(C)cc1 | inconclusive: 23.2%
20 | O=C(O)C(Cc1c[nH]c2ccccc12)N1CCS(=O)(=O)CC1 (centres undefined) | inconclusive: 23.5%
21 | C[C@H]1CN([C@@H](C)CO)C(=O)CCCn2nncc2CO[C@@H]1CN(C)S(=O)(=O)c1ccc(-n2cccn2)cc1 | inconclusive: 27.6%
22 | CCCNC(=O)N1[C@@H]2CNC[C@H]1C2c1ccc(/C=C/c2ccccc2)cc1 (some centres undefined) | inactive: 13.7% and inactive: -12.2%
23 | CC(=O)N1CCc2cc(S(=O)(=O)NCC(=O)NCc3ccc(Cl)cc3)ccc21 | inconclusive: 47.1%
24 | C[C@@H]1CN([C@@H](C)CO)S(=O)(=O)c2ccc(/C=C/c3ccccc3)cc2O[C@H]1CN(C)Cc1cncnc1 | inactive: 2.66%
25 | OCc1ccc(-c2ccc3nccn3c2)cc1 | inconclusive: 48.2%

Row | SMILES | CPE inhibition
26 | O=C(C[C@@H]1CC[C@@H]2[C@H](COC[C@@H](O)CN2C(=O)c2cccnc2)O1)NCc1ccc(Cl)cc1 | inactive: 0.21%
27 | CC(C)c1ccc(NC(=O)CSc2nnc(CN3CCOCC3)n2C)cc1 | inactive: 6.04%
28 | Cn1c(=O)c2c(nc(NCc3ccccc3)n2CC(N)=O)n(C)c1=O | inconclusive: 21.9%
29 | O=C1N/C(=N\c2ccccn2)SC1Cc1ccccc1Cl (centres undefined) | inconclusive: 42.2%
30 | COc1ccc(S(=O)(=O)N(C)C[C@H]2OCCCC[C@H](C)Oc3ccc(NS(=O)(=O)c4ccccc4)cc3C(=O)N([C@H](C)CO)C[C@@H]2C)cc1 | inactive: 1.73%
31 | CNC(=O)C[C@H]1CC[C@@H]2[C@H](COC[C@@H](O)CN2S(=O)(=O)c2ccccc2Cl)O1 | inactive: 4.57%
32 | Cc1cc(NC(=O)NC(C(F)(F)F)C(F)(F)F)no1 | inconclusive: 23.5%
33 | CO[C@@H]1CN(C)C(=O)c2cc(NS(C)(=O)=O)ccc2OC[C@H](C)N(CC2CCCCC2)C[C@H]1C | inactive: 2.84%
34 | COc1ccc2c3c(n(C)c2c1)[C@H](CO)N(Cc1ccncc1)CC31CCN(C(=O)C2CCCC2)CC1 | inactive: 4.59%
35 | CCOC(=O)N1CCN(S(=O)(=O)N2CCCC(C(=O)NCc3ccc(C)cc3)C2)CC1 (centres undefined) | inactive: -4.2%
36 | CCC(C)N(CCNC(=O)CC1Oc2ccccc2NC1=O)C1CCCCC1 (centres undefined) | inconclusive: 21.9%
37 | CN(C)S(=O)(=O)c1ccc(C(=O)OC2CCOC2=O)cc1 (centres undefined) | inconclusive: 36.9%
38 | CCC(=O)N1C[C@H](O)COC[C@H]2O[C@@H](CC(=O)NCc3cc(F)cc(F)c3)CC[C@@H]21 | inconclusive: 24.6%
39 | C[C@H](CO)N1C[C@H](C)[C@@H](CN(C)S(=O)(=O)c2ccccc2)Oc2ccc(NC(=O)Nc3ccc(C(F)(F)F)cc3)cc2CC1=O | active: 64.6%
40 | COc1ccc(S(=O)(=O)Nc2ccc3c(c2)C(=O)N([C@@H](C)CO)C[C@H](C)[C@@H](CN(C)C(=O)Nc2ccc(F)cc2)OCCCC[C@H](C)O3)cc1 | inactive: -6.07%
41 | Cc1ccc(N2C(=O)N(CC(=O)Nc3ccccc3C(F)(F)F)C(=O)C2C)cc1 (centres undefined) | inconclusive: 50.7%
42 | CCS(=O)(=O)NCC[C@@H]1CC[C@@H](NS(=O)(=O)c2cccc(F)c2)[C@@H](CO)O1 | inconclusive: 68.2%
43 | N#CCC(=O)Nc1ccc(C(F)(F)F)cc1N1CCOCC1 | inactive: -2.52%
44 | COCC(=O)Nc1ccc2c(c1)C(=O)N(C)C[C@H](OC)[C@@H](C)CN(CCC(F)(F)F)[C@H](C)CO2 | inactive: -0.135%
45 | CCOC(=O)c1cccc(NC(=O)COc2nsnc2N2CCOCC2)c1 | inconclusive: 26.6%
46 | COc1cccc(S(=O)(=O)N(C)C[C@@H]2OCc3cnnn3CCCC(=O)N([C@H](C)CO)C[C@H]2C)c1 | inconclusive: 48.3%
47 | COc1cc2c(cc1OC)C(C)=NCC2 | inconclusive: 30.6%
48 | CSCCC(=O)N1CCCC(CNC(=O)c2ccc(-c3ccccc3)cc2)C1 (centres undefined) | inactive: -2.41%
49 | CC1CCC2(CC1)NC(=O)N(NC(=O)c1cc3ccccc3o1)C2=O (centres undefined) | inconclusive: 44.9%
50 | C[C@@H]1CCCCO[C@@H](CN(C)C(=O)Nc2ccc(C(F)(F)F)cc2)[C@@H](C)CN([C@H](C)CO)C(=O)c2cc(NC(=O)c3ccccc3)ccc2O1 | inconclusive: 23.5%

Row | SMILES | CPE inhibition
51 | O=C(NCc1cccc(F)c1)c1noc2c1CCCC2 | inconclusive: 31.1%
52 | OCCC1CN(Cc2cnc(-c3ccc(Cl)cc3)nc2)CCN1C1CCCCC1 (centres undefined) | active: 50.5%
53 | Cc1ccc2nc3n(c(=O)c2c1)-c1ccc(Cl)cc1C(=O)NC3CC(C)C (centres undefined) | active: 77%
54 | O=C(NC1CCC(O)CC1)c1cccnc1Sc1ccccc1Cl (centres undefined) | inconclusive: 33.5%
55 | CC(C)(C)NC(=O)CSc1nc2ccc(NC(=O)CSc3nnc(N)s3)cc2s1 | inconclusive: 44.4%
56 | Cc1cccc(NC(=O)Nc2ccc(S(=O)(=O)Nc3onc(C)c3C)cc2)c1 | inactive: 1.21%
57 | COC(=O)C[C@@H]1CC[C@H]2[C@H](COc3ccc(NS(=O)(=O)c4ccccc4Cl)cc3C(=O)N2C)O1 | inactive: 8.61%
58 | C[C@H](NC(=O)C[C@@H]1CC[C@@H]2[C@H](COC[C@H](O)CN2C(=O)Nc2ccccc2)O1)c1ccccc1 | active: 34.1%
59 | NC(=O)c1nn(CC(=O)Nc2cccc(S(=O)(=O)N3CCCC3)c2)c(=O)c2ccccc12 | inconclusive: 24.8%
60 | Cc1noc(C)c1NC(=O)Nc1ccc2c(c1)C(=O)N([C@@H](C)CO)C[C@@H](C)[C@H](CN(C)S(=O)(=O)c1ccc(F)cc1)O2 | inconclusive: 53.5%
61 | CC(C)N(Cc1ccccc1)C(=O)c1ccc2c(c1)OCO2 | inconclusive: 30.2%
62 | CCCCCc1c(-c2ccccc2OC)ncn1CCc1ccccc1OC | active: 26.3%
63 | CC(C)NC(=O)N(C)C[C@@H]1Oc2ccc(NC(=O)Cn3cnnn3)cc2CC(=O)N([C@H](C)CO)C[C@H]1C | inactive: -6.63%
64 | CCN(Cc1ccncc1)C(=O)c1ccco1 | active: 25.5%
65 | COCC#Cc1cnc2c(c1)C(=O)N([C@@H](C)CO)C[C@@H](C)[C@@H](CN(C)S(=O)(=O)c1ccccc1)O2 | inconclusive: 28%
66 | CCOC(=O)C1OC1(c1ccccc1)c1ccccc1 (centres undefined) | inconclusive: 23.7%
67 | CCOC(=O)Cc1c(Cl)c2ccccc2[nH]c1=O | inactive: 5.52%
68 | O=C(Nc1ccc2c(c1)C(=O)NC2=O)c1cccc(C(F)(F)F)c1 | inconclusive: 23.8%
69 | COc1ccc(C)cc1N(C(=O)CNC(=O)c1ccco1)C(C(=O)NCC1CCCO1)c1ccccc1 (centres undefined) | inconclusive: 24.5%
70 | CO[C@H]1CN(C)C(=O)c2cc(NC(=O)Nc3ccccc3Cl)ccc2OC[C@@H](C)NC[C@@H]1C | active: 30.8%
71 | Cn1c(SCC(=O)Nc2ccc(F)cc2)nnc1-c1cccnc1 | active: 21.9%
72 | Cc1noc(C)c1S(=O)(=O)Nc1ccc2c(c1)CC(=O)N([C@H](C)CO)C[C@H](C)[C@@H](CN(C)Cc1ccc(C(=O)Nc3ccccc3N)cc1)O2 | active: 39.9%
73 | CCCCOc1ccc(NC(=O)CCSc2nccn2C)cc1 | inconclusive: 35.8%
74 | COc1ccc(S(=O)(=O)N(C)C[C@@H]2Oc3ncc(-c4cc5ccccc5o4)cc3C(=O)N([C@H](C)CO)C[C@@H]2C)cc1 | inactive: 12.8%

Looked up above.
CCN(Cc1ccncc1)C(=O)c1ccco1 – CPE inhibition: active: 25.5%
C[C@@H]1CN([C@@H](C)CO)C(=O)c2cc(NS(C)(=O)=O)ccc2O[C@H]1CN(C)Cc1ccc(-c2ccccc2)cc1 – CPE inhibition: active: 31.6%
CN(C)S(=O)(=O)c1ccc(C(=O)OC2CCOC2=O)cc1 (centres undefined) – CPE inhibition: inconclusive: 36.9%
CCOC(=O)C1OC1(c1ccccc1)c1ccccc1 (centres undefined) – CPE inhibition: inconclusive: 23.7%
